Laboratory results taken from publication PMC8994751.
These are yes or no findings as the source states them, for the method shown. For some of these results: In cells and extracts the contact can be indirect. Some binding calls cover weakened binding; strength is not graded here. For some of these results: Tags and fused reporters may be left off the sequences shown.

By UniProt entry, the sequences of proteins in these tests, tags left out.
UniProt Q9GZV5: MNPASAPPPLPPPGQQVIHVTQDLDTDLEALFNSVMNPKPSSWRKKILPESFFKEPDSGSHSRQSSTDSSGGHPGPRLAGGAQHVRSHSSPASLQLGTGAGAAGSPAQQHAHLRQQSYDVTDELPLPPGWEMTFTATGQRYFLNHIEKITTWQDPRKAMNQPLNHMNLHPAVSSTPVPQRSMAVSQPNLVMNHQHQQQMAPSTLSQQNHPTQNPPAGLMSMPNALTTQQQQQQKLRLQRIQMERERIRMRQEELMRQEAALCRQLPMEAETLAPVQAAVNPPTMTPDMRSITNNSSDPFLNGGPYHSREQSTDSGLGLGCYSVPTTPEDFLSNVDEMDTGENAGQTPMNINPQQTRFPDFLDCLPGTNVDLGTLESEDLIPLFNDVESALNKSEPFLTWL

How the values were obtained:
Flag-USP26 full length = molecular target: T1, Flag-USP26 full length (UniProt Q9BXU7); experiment: co-IP; HEK293 cells transfected with Flag-USP26 and Myc-TAZ full length or mutants; NP-40 lysis buffer; IP with Flag antibody, blot with Myc antibody
T1 sequence: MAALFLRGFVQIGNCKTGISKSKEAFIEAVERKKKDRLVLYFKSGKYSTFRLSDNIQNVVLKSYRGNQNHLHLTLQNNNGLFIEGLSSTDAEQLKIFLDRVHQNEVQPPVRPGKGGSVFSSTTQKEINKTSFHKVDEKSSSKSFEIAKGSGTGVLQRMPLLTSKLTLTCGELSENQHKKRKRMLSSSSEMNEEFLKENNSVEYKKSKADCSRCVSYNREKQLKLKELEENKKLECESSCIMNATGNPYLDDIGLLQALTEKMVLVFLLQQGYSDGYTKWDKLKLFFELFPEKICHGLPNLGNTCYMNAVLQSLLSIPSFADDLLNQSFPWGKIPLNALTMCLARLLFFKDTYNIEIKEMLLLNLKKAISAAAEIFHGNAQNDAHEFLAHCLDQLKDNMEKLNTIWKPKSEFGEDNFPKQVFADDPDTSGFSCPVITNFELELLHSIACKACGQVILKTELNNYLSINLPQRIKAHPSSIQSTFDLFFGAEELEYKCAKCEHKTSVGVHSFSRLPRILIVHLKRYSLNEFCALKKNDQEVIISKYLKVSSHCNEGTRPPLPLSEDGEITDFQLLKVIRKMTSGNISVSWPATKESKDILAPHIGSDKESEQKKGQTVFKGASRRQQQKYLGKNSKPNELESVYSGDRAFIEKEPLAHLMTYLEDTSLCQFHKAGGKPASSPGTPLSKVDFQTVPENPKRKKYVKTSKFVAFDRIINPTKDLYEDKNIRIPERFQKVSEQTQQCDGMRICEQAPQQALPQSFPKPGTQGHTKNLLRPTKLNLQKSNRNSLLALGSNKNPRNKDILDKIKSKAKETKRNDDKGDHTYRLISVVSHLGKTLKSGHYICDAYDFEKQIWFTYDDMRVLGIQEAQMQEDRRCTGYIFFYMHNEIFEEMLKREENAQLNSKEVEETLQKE

[1] = molecular target: TAZ (endogenous, CAL-62 cells) (human (endogenous in CAL-62)) (UniProt Q9GZV5); experiment: co-IP; endogenous proteins from CAL-62 cells; RIPA lysis buffer; antibody as indicated, Protein A/G PLUS-Agarose, 4 °C overnight; western blot
GST-TAZ (recombinant) = GST-TAZ (recombinant) (UniProt Q9GZV5); experiment: pull-down; 2 μg recombinant GST or GST-TAZ with 2 μg recombinant USP26 and glutathione beads; 0.5 mM EDTA, 10 mM HEPES pH 7.5, 0.1% NP-40, 50 mM NaCl, 0.5 mM DTT; 4 °C, 2 h; western blot; both purified
Myc-TAZ full length = Myc-TAZ full length (UniProt Q9GZV5); experiment: co-IP; HEK293 cells transfected with Myc-TAZ and Flag-USP26 full length or mutants; NP-40 lysis buffer; IP with Myc antibody, blot with Flag antibody

Question: “Myc-TAZ full length (from UniProt Q9GZV5 1-400)” was tested. Which binding (Flag-USP26 full length) did it give?
Answer: binds

B1: USP26 (endogenous, CAL-62 cells) (enzyme, UniProt Q9BXU7 1-913)
chain: T1 sequence
Question: Which binding [1] does the source give for B1 here?
Answer: binds

B2: recombinant USP26 (enzyme, UniProt Q9BXU7 1-913)
chain: T1 sequence
Question: B2 was tested. Which binding (GST-TAZ (recombinant)) did it give?
Answer: binds

B3: Flag-USP26 USP domain (deletion mutant) (domain or fragment, UniProt Q9BXU7 295-886)
chain: HGLPNLGNTCYMNAVLQSLLSIPSFADDLLNQSFPWGKIPLNALTMCLARLLFFKDTYNIEIKEMLLLNLKKAISAAAEIFHGNAQNDAHEFLAHCLDQLKDNMEKLNTIWKPKSEFGEDNFPKQVFADDPDTSGFSCPVITNFELELLHSIACKACGQVILKTELNNYLSINLPQRIKAHPSSIQSTFDLFFGAEELEYKCAKCEHKTSVGVHSFSRLPRILIVHLKRYSLNEFCALKKNDQEVIISKYLKVSSHCNEGTRPPLPLSEDGEITDFQLLKVIRKMTSGNISVSWPATKESKDILAPHIGSDKESEQKKGQTVFKGASRRQQQKYLGKNSKPNELESVYSGDRAFIEKEPLAHLMTYLEDTSLCQFHKAGGKPASSPGTPLSKVDFQTVPENPKRKKYVKTSKFVAFDRIINPTKDLYEDKNIRIPERFQKVSEQTQQCDGMRICEQAPQQALPQSFPKPGTQGHTKNLLRPTKLNLQKSNRNSLLALGSNKNPRNKDILDKIKSKAKETKRNDDKGDHTYRLISVVSHLGKTLKSGHYICDAYDFEKQIWFTYDDMRVLGIQEAQMQEDRRCTGYIFFYMHN
Question: With B3 as the molecule, how does the binding (Myc-TAZ full length) read?
Answer: binds
